In publication PMC7153038, “Pharmacologic inhibition of RGD‐binding integrins ameliorates fibrosis and improves function following kidney injury” (Physiological Reports, 2020) one finds binding data, which are given here for one substance.

Amino acid sequences for entries named in this document (tags omitted). A change or cut given only in a name is not applied to a line headed by its entry.
UniProt P53708: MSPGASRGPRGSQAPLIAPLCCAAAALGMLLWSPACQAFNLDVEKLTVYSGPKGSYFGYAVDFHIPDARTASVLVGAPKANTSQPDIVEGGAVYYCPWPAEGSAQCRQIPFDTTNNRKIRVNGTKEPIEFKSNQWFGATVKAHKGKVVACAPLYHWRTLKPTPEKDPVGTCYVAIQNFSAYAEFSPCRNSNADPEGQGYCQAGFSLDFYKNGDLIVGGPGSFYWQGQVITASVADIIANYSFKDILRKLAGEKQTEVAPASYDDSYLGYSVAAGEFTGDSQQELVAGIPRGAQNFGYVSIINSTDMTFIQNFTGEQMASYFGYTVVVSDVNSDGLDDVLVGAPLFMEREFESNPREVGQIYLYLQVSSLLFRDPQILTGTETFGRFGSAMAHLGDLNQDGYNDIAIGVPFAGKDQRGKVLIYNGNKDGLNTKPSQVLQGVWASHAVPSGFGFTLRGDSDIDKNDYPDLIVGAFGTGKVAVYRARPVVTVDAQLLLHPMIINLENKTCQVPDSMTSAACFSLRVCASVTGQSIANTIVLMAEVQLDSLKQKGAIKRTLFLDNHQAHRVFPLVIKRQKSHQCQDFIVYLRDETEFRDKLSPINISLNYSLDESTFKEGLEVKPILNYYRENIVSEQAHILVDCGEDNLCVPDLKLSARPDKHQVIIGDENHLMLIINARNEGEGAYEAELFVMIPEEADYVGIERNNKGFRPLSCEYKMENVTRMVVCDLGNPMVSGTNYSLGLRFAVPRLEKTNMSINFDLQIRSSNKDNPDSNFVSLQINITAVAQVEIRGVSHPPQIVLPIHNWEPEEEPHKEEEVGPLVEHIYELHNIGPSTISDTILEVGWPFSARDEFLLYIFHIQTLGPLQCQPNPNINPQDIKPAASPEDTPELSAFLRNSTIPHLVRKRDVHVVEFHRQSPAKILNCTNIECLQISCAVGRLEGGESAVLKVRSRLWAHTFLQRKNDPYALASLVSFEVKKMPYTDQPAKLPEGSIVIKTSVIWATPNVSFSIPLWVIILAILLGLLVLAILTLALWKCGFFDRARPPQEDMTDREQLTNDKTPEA

The assay concerns the target T1, purified recombinant mouse nephronectin (mouse) (UniProt Q91V88).
T1 sequence: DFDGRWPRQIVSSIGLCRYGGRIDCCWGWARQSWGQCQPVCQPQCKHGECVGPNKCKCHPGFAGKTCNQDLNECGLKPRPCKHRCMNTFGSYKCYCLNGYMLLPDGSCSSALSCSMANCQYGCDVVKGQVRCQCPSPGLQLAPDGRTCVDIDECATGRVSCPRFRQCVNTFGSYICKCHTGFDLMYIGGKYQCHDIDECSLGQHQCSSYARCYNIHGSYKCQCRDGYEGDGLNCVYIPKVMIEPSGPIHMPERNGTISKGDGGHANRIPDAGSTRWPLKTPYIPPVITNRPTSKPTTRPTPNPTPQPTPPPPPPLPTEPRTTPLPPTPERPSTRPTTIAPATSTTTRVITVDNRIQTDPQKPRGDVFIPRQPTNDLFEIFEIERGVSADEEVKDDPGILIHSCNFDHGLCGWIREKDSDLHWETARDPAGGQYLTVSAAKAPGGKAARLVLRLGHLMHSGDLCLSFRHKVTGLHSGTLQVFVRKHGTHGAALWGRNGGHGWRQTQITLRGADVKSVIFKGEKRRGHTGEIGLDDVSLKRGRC
Briefly: cell attachment assay; cells bearing the integrin added to 96-well plates coated with the purified ligand; concentration of the small molecule CWHM-12 or CWHM-680 varied; ligand coating optimised with function-neutralizing antibodies (for α8β1 by comparison with parental nontransfected cells); only the target purified.

These are yes or no findings as the source states them, for the method shown. Some binding calls cover weakened binding; strength is not graded here.

Turning to “integrin α8β1 (from UniProt P53708 39-1063; P05556 21-798) (receptor)”, the binding result is on record as “binds”.
